Literature values, collected in patent US20070282012A1 (priority 2004, published 2007).
At least one compound was matched to its structure with a doubt left. Some compounds share one wording; it may come from a single statement.

conditions: cited from earlier work

Compound	lacrimatory property
CCCC=S=O [Thiobutanal S-Oxide]	have the lacrimatory property similar to Thiopropanal S-Oxide
CC=S=O [Thioethanal S-Oxide]	have the lacrimatory property similar to Thiopropanal S-Oxide
CCCCCC=S=O [Thiohexanal S-Oxide]	have the lacrimatory property similar to Thiopropanal S-Oxide
